Assay results published in publication doi:10.1101/2024.07.10.602886.
Results are given in words; binding and its absence hold for the method and conditions named. Binding seen in cells or lysates may run through a third protein. Some entries that bind do so weakly or less than the wild type.

Chains of the proteins cited; added tags and fusions are not shown.
UniProt Q9H1Y0: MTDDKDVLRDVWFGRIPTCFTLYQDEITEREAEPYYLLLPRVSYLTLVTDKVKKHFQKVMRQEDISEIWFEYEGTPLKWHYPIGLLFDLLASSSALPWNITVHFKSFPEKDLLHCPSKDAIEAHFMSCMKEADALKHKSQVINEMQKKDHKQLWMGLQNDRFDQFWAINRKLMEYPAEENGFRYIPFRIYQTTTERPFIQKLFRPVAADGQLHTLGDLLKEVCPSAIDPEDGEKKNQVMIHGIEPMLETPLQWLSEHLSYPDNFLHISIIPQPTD
UniProt Q92609: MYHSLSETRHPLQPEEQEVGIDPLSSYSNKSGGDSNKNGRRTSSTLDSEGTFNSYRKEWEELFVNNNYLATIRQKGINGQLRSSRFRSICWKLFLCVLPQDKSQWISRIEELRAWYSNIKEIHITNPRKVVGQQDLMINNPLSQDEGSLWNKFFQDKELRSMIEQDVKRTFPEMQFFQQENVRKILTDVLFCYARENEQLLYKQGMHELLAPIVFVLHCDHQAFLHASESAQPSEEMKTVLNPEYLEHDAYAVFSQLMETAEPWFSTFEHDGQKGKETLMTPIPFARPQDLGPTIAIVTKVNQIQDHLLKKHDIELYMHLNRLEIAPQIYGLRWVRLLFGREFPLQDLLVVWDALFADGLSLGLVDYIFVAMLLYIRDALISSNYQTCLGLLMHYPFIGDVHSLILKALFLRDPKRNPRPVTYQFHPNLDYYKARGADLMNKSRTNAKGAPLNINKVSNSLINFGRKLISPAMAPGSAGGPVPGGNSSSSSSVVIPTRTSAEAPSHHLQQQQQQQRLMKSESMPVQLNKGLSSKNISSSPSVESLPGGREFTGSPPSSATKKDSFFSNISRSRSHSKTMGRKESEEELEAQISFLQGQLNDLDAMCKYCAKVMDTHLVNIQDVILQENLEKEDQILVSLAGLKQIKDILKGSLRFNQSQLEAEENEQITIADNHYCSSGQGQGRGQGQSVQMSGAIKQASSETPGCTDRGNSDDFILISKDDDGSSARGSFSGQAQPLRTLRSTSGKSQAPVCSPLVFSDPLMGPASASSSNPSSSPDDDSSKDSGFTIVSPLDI

Experiments:
LC3A = LC3A (UniProt Q9H492); assay: co-IP; LC3A co-IPs blotted for TBC1D5 and VPS35; cells under CASM-inducing treatments and bafilomycin A1
[1] = target: ATG5 (endogenous) (human (endogenous in HeLa)) (UniProt Q9H1Y0); assay: co-IP; endogenous ATG5 and endogenous retromer subunits in HeLa cells treated with or without 2 mM LLOMe for 30 min; NP-40 buffer lysates, Dynabeads, immunoblot; which side was precipitated is not stated

| Substance | binding (LC3A) | binding [1] |
| --- | --- | --- |
| TBC1D5 (from UniProt Q92609 1-795) | binds | – |
| VPS26A (endogenous) (from UniProt O75436 1-327) | – | binds |
